From the supplement of paper PMC8728848 come the findings set out here.

Some of the results follow.

Holding throughout (experiment): glycan array binding signal (z-score within array); higher = stronger binding
Common to all, as to settings: glycan notation: IUPAC condensed, linker removed

In experiment [1] the target is Neu5Ac(a2-3)Gal(b1-3)GalNAc. The method in brief: (§1)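 Glycan array data were curated from 3228 arrays in the Consortium for Functional Glycomics database and kept only where the protein sequence was available. Glycan names were converted to IUPAC-condensed notation, and columns mapping to the same glycan were averaged. The binding signal is a within-array Z-score, averaged across arrays of the same protein sequence at different concentrations or buffers and across linkers. Negative Z-scores can be read as non-binding.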

Experiment [2] addresses Neu5Ac(a2-3)Gal(b1-3)GalNAc(b1-3)Gal(a1-4)Gal(b1-4)Glc. The method in brief:
as §1

Experiment [3] concerns the target Neu5Ac(a2-3)Gal(b1-3)GalNAc(b1-4)Gal(b1-4)Glc. In short, it runs like this: as §1
Experiment [4] deals with Neu5Ac(a2-3)Gal(b1-3)GalNAc(b1-4)[Neu5Ac(a2-3)]Gal(b1-4)Glc. The method in brief:
as §1

For experiment [5], the target named is Neu5Ac(a2-3)Gal(b1-3)GalNAc(b1-4)[Neu5Ac(a2-8)Neu5Ac(a2-3)]Gal(b1-4)Glc. In short, it runs like this:
as §1

Experiment [6] addresses Neu5Ac(a2-3)Gal(b1-3)GalNAc6S. In short, it runs like this: as §1
Experiment [7] has as its target Neu5Ac(a2-3)Gal(b1-3)GlcNAc. The method in brief: as §1
Experiment [8] concerns the target Neu5Ac(a2-3)Gal(b1-3)GlcNAc(b1-2)Man. The method in brief:
as §1

The target of experiment [9] is Neu5Ac(a2-3)Gal(b1-3)GlcNAc(b1-2)Man(a1-3)[GlcNAc(b1-4)][Neu5Ac(a2-3)Gal(b1-3)GlcNAc(b1-2)Man(a1-6)]Man(b1-4)GlcNAc(b1-4)GlcNAc. In short, it runs like this: as §1
Experiment [10] has as its target Neu5Ac(a2-3)Gal(b1-3)GlcNAc(b1-2)Man(a1-3)[Neu5Ac(a2-3)Gal(b1-3)GlcNAc(b1-2)Man(a1-6)]Man(b1-4)GlcNAc(b1-4)GlcNAc. In short, it runs like this:
as §1

Experiment [11] addresses Neu5Ac(a2-3)Gal(b1-3)GlcNAc(b1-2)[Neu5Ac(a2-3)Gal(b1-3)GlcNAc(b1-4)]Man(a1-6)[Neu5Ac(a2-3)Gal(b1-3)GlcNAc(b1-2)Man(a1-3)]Man(b1-4)GlcNAc(b1-4)GlcNAc. The method in brief:
as §1

Experiment [12] concerns the target Neu5Ac(a2-3)Gal(b1-3)GlcNAc(b1-3)Gal(b1-3)GlcNAc. In short, it runs like this:
as §1

In experiment [13] the target is Neu5Ac(a2-3)Gal(b1-3)GlcNAc(b1-3)Gal(b1-4)GlcNAc. In short, it runs like this:
as §1

Experiment [14] deals with Neu5Ac(a2-3)Gal(b1-3)GlcNAc(b1-3)GalNAc. In short, it runs like this:
as §1

In experiment [15] the target is Neu5Ac(a2-3)Gal(b1-3)GlcNAc(b1-6)GalNAc. In short, it runs like this: as §1
For experiment [16], the target named is Neu5Ac(a2-3)Gal(b1-3)GlcNAc6S. The method in brief: as §1
Experiment [17] has as its target Neu5Ac(a2-3)Gal(b1-3)[Fuc(a1-4)]GlcNAc. The method in brief: as §1
For experiment [18], the target named is Neu5Ac(a2-3)Gal(b1-3)[Fuc(a1-4)]GlcNAc(b1-3)Gal(b1-3)[Fuc(a1-4)]GlcNAc. The method in brief: as §1
Experiment [19] has as its target Neu5Ac(a2-3)Gal(b1-3)[Fuc(a1-4)]GlcNAc(b1-3)Gal(b1-4)[Fuc(a1-3)]GlcNAc. The method in brief:
as §1

The target in experiment [20] is Neu5Ac(a2-3)Gal(b1-3)[GlcNAc(b1-6)]GalNAc. The method in brief: as §1
For experiment [21], the target named is Neu5Ac(a2-3)Gal(b1-3)[Neu5Ac(a2-6)]GalNAc. In short, it runs like this:
as §1

Experiment [22] has as its target Neu5Ac(a2-3)Gal(b1-3)[Neu5Ac(a2-6)]GlcNAc(b1-3)[Fuc(a1-3)[Gal(b1-4)]GlcNAc(b1-6)]Gal(b1-4)Glc. The method in brief: as §1

B1: Pwp1 (Candida glabrata) (protein)
chain: MGSSHHHHHHSSGLVPRGSHMASANPISITNVCQFPDNWARTAGFQATTVRLGLTIASNTYKELLNYPGLFNFATQKATVTQPNFSISGFPFFTGLYGLTVWPINLLVELQGYFVPPESGNYTFTLQGSDDAAILFFANPSTFACGSQNDWPQPREADITVTDTLVPSRTLYLVKGVAYPIRIAYYNGSGDGKLNVSFKDPSGTTHTDWKGYVWQYSNTCSTCTYT
As for B1, the “glycan array binding signal (z-score)” value in [1] was 0.681; in [2], 1.18; in experiment [3], 1.46; in [4], -0.876; in experiment [5], 0.23; in experiment [6] it was 1.15. In addition, the “glycan array binding signal (z-score)” value is -0.533 in experiment [7]; 0.584 in experiment [8]; 0.597 in [9]; 1.89 in experiment [10]; 0.101 in [11]; -0.231 in experiment [12]. The “glycan array binding signal (z-score)” value in experiment [13] was -1.22; in [14] it was 0.585; in experiment [15] it was 0.849; in [16], 1.35; in experiment [17], -1.74; in experiment [18], -0.821. The “glycan array binding signal (z-score)” value in [19] was -0.839; in [20], 3.78; in experiment [21], 0.612; in experiment [22], -0.315.
